For the assay, the target named is T1, ribosomal protein uL16 of the 60S large ribosomal subunit (Saccharomyces cerevisiae) (S. cerevisiae) (UniProt P41805).
T1 sequence: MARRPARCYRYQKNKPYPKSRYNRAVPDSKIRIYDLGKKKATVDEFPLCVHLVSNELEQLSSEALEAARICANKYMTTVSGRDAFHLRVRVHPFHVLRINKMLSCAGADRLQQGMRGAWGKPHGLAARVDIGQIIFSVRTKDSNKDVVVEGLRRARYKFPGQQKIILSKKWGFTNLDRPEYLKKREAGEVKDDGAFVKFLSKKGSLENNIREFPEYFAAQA
The assay can be described thus: cryo-EM structure.

No constants are given. Whether binding was seen depends on the method and setting. Some results given as binding are weak or reduced against the parent protein; the word gives no strength. Where a sequence is shown, tags or fusion partners need not be part of it.

B1: eukaryotic translation initiation factor eIF5B (Saccharomyces cerevisiae) (protein, UniProt P39730 1-1002)
chain: MAKKSKKNQQNYWDEEFEEDAAQNEEISATPTPNPESSAGADDTSREASASAEGAEAIEGDFMSTLKQSKKKQEKKVIEEKKDGKPILKSKKEKEKEKKEKEKQKKKEQAARKKAQQQAQKEKNKELNKQNVEKAAAEKAAAEKSQKSKGESDKPSASAKKPAKKVPAGLAALRRQLELKKQLEEQEKLEREEEERLEKEEEERLANEEKMKEEAKAAKKEKEKAKREKRKAEGKLLTRKQKEEKKLLERRRAALLSSGNVKVAGLAKKDGEENKPKKVVYSKKKKRTTQENASEAIKSDSKKDSEVVPDDELKESEDVLIDDWENLALGDDDEEGTNEETQESTASHENEDQNQGEEEEEGEEEEEEEEERAHVHEVAKSTPAATPAATPTPSSASPNKKDLRSPICCILGHVDTGKTKLLDKIRQTNVQGGEAGGITQQIGATYFPIDAIKAKTKVMAEYEKQTFDVPGLLVIDTPGHESFSNLRSRGSSLCNIAILVIDIMHGLEQQTIESIKLLRDRKAPFVVALNKIDRLYDWKAIPNNSFRDSFAKQSRAVQEEFQSRYSKIQLELAEQGLNSELYFQNKNMSKYVSIVPTSAVTGEGVPDLLWLLLELTQKRMSKQLMYLSHVEATILEVKVVEGFGTTIDVILSNGYLREGDRIVLCGMNGPIVTNIRALLTPQPLRELRLKSEYVHHKEVKAALGVKIAANDLEKAVSGSRLLVVGPEDDEDELMDDVMDDLTGLLDSVDTTGKGVVVQASTLGSLEALLDFLKDMKIPVMSIGLGPVYKRDVMKASTMLEKAPEYAVMLCFDVKVDKEAEQYAEQEGIKIFNADVIYHLFDSFTAYQEKLLEERRKDFLDYAIFPCVLQTLQIINKRGPMIIGVDVLEGTLRVGTPICAVKTDPTTKERQTLILGKVISLEINHQPVQEVKKGQTAAGVAVRLEDPSGQQPIWGRHVDENDTLYSLVSRRSIDTLKDKAFRDQVARSDWLLLKKLKVVFGIE
With B1, the binding entry was “binds”.

For the origin of these results see article doi:10.1101/2020.05.30.125153.
